Earlier results, collected in paper PMC4546427, “Stereoselective Regulation of P-gp Activity by Clausenamide Enantiomers in Caco-2, KB/KBv and Brain Microvessel Endothelial Cells” (PLoS ONE, 2015).

Test system: P-gp
Settings: Caco-2 cells pre-treated with 100 μmol/L; cited from earlier work

| SMILES | Efflux of Rh123 and doxorubicin |
| --- | --- |
| O=C(O)COCCN1CCN([C@H](c2ccccc2)c2ccc(Cl)cc2)CC1 [R-cetirizine] | significantly enhanced |
| O=C(O)COCCN1CCN([C@@H](c2ccccc2)c2ccc(Cl)cc2)CC1 [S-cetirizine] | reduced |
